In PMC12040169 (PLOS Biology, 2025):
This is one part of the list.

What follows are compounds tested on T1, CTL2-GFP (C. trachomatis L2/434/Bu, GFP-expressing). Conditions: bulk GFP, single well; 28.5 h, 10 µM; inhibitor.
T1 construct: L2/434/Bu, GFP-expressing
Design: species or system HeLa; Intracellular C. trachomatis growth in HeLa cells, bulk GFP fluorescence relative to DMSO

SMILES	% of control remaining [%]
C[C@H](c1ccccc1)n1c(=O)[nH]c2ncc(-c3cccc4ncccc34)nc21 [CBK064173]	98.8283
O=c1nc(O)c2ccccc2s1 [CBK027968]	125.469
O=C(NCC1COc2ccccc2O1)c1ccc(-c2ccccc2)nc1NCCc1ccccn1 (stereo not shown) [CBK076554]	124.518
CC(=O)NCC1CCCN(Cc2c[nH]nc2-c2c(F)cccc2F)C1 (stereo not shown) [CBK306382]	140.637
O=C(Cn1nc(C(F)(F)F)c2c1CCC2)N1CCN(Cc2ccccc2)CC1 [CBK266113]	100
O=CNC(Cc1ccc(O)c([N+](=O)[O-])c1)C(=O)O (stereo not shown) [CBK262421]	113.052
CS(=O)(=O)c1ccc(-c2cnc(N)c(NCc3ccncc3)n2)cc1 [CBK063647]	133.049
Nc1ncc(-c2ccc3c(c2)OCO3)nc1NCc1ccncc1 [CBK063483]	150.714
Cc1cccc(-c2n[nH]c(=S)n2CC(=O)NCc2cn(-c3ccccc3)nc2-c2ccccc2)c1 [CBK297941]	174.338
Cc1occc1-c1nnc(NCc2cnn(C)c2C)o1 [CBK304819]	113.891
O=C(CSc1nc2ccccc2c(=O)[nH]1)Nc1ccccc1O [CBK269738]	128.112
CCOc1cc(OCC)cc(C(=O)N2CCC3(CC2)CC(=O)c2c(OC)cccc2O3)c1 [CBK168012]	112.697
COc1ccc2c(c1OC)C(=O)N(c1cccc([N+](=O)[O-])c1)C2 [CBK115318]	93.5644
COCCNC(=O)CN(C)c1nc2ccccc2[nH]1 [CBK306378]	134.391
CC(=O)Nc1ccc(-c2cncc(N(C)CCN(C)C)n2)cc1 [CBK065694]	241.455
COC(=O)C1C=C(NS(=O)(=O)c2ccc(-c3ccnc(SC)n3)s2)C=CC1 (stereo not shown) [CBK160388]	107.704
N=c1n(CCN2CCCCC2)c2ccccc2n1CC(O)COc1ccc(Cl)cc1 (stereo not shown) [CBK262512C]	112.857
CC(O)CNC(=O)C1(c2ccccc2)CCCC1 (stereo not shown) [CBK149542]	133.642
COc1ccc([C@@]23CC[C@@H](N)C[C@@H]2N(C(C)(C)C)CC3)cc1OC [CBK067673]	111.739
O=C(NC(=S)Nc1ccc2c(c1)Cc1ccccc1-2)c1cc([N+](=O)[O-])ccc1N1CCOCC1 [CBK268726]	119.928
O=C(Nc1cccc(O)c1)c1ccc(Br)c(S(=O)(=O)N2CCCCC2)c1 [CBK261736]	105.731
O=S(=O)(NC[C@H]1C[C@@H]2CC[N@]1C[C@@H]2CN1CCOCC1)c1cccs1 [CBK288759]	115
Cc1n[nH]cc1C(=O)NC[C@H]1CC[C@H](c2cc(C(=O)NC(C)C)c3ccccc3n2)CC1 [CBK285862]	127.388
CC(=O)N1CCC(C(=O)NC(=O)NCCOc2ccccc2Cl)CC1 [CBK034842]	104.563
COc1ccnc(N2CCN(Cc3nnnn3C3CC3)CC2)n1 [CBK305808]	113.857

SMILES	% of control remaining [%]
Cc1ccc2nc3c(cc2c1)CN(Cc1ccco1)C(=O)CO3 [CBK283594]	123.317
Cn1cncc1CN1CCNC(=O)C1c1ccccc1C(F)(F)F (stereo not shown) [CBK305495]	111.797
CCOc1ccc(CN(C)C(C)C(=O)Nc2cc(C)no2)cc1 (stereo not shown) [CBK305607]	137.385
CN(CC(F)(F)F)C(=O)CCc1nc(-c2cccs2)no1 [CBK282215]	147.602
Cc1cc(OCC(=O)Nc2ccc(S(=O)(=O)Nc3onc(C)c3C)cc2)cc(C)c1Cl [CBK263491]	13.7602
CC(C)[C@@H](N)Cn1nnc2ccccc21 [CBK284323]	107.091
O=C(c1cc[nH]c1)N1CCC2(CCN(Cc3ccccc3)CC2)C1 [CBK136756]	115.711
O=C(O)CN1CCN(c2ncnc3sc4c(c23)CCCC4)CC1 [CBK286836]	120.857
Cc1nc2ccc(C(=O)N(C)CCN3CCCCC3)cc2s1 [CBK281919]	124.505
CS(=O)(=O)Nc1ccc2cc(-c3cccc(C(F)(F)F)c3)cnc2n1 [CBK085671]	116.333
Cc1ccc(N2C(=O)c3ccc(C(=O)OCc4ccc([N+](=O)[O-])cc4)cc3C2=O)cc1Cl [CBK265730]	165.827
Cc1ccc2[nH]c(SCC(=O)Nc3cccc(NC(=O)C45CC6CC(CC(C6)C4)C5)c3)nc2c1 [CBK265679]	98.5355
Cc1ccc(C(=O)N2CN(C(=O)CNC(C)(C)C)CC2(C)C)cc1 [CBK089575C]	132.643
Cc1noc(C)c1C(=O)N1CCOCC1 [CBK057765]	129.864
O=C(NCc1nnc2ccccn12)c1ccccc1 [CBK288064]	116.038
O=c1[nH]c2ncc(-c3ccc4c(c3)OCO4)nc2n1C1CC1 [CBK064922]	196.12
COc1ccc2c(c1)C1(CC(=O)N(CC(=O)N(C)C)C1=O)C(=O)N2Cc1ccc2ccccc2n1 (stereo not shown) [CBK075923]	114.728
CN(C)C(c1ccc2c(c1)OCO2)c1nnnn1C1CCCCC1 (stereo not shown) [CBK020620]	114.303
O=[N+]([O-])c1ccc(O)c(/C=N/c2ccc3cc4ccc(/N=C/c5cc([N+](=O)[O-])ccc5O)cc4nc3c2)c1 [CBK261557]	100
c1cnn(C2CCCN(Cc3ccc(Oc4cnccn4)cc3)C2)c1 (stereo not shown) [CBK304043]	103.755
O=[N+]([O-])c1ccc2c(c1)C(N1CCOCC1)/C(=C/COc1ccc3ccccc3c1Br)O2 (stereo not shown) [CBK262738]	94.6497
COCCOC(=O)C1=C(C)N(c2ccc(C(=O)O)cc2)C(=O)NC1c1ccccc1Cl (stereo not shown) [CBK296986]	151.508
O=C1C2C=NNC2C(=O)N1c1ccccc1 (stereo not shown) [CBK022326]	112.463
Cc1ccc(C)c(NC(=O)N2CCC3(CCc4nccc(C)c4C3=O)CC2)c1 [CBK059554]	107.197

For reference, some entries already given:
SMILES	% of control remaining [%]
O=C(c1cc[nH]c1)N1CCC2(CCN(Cc3ccccc3)CC2)C1 [CBK136756]	115.711
O=C(O)CN1CCN(c2ncnc3sc4c(c23)CCCC4)CC1 [CBK286836]	120.857
Cc1nc2ccc(C(=O)N(C)CCN3CCCCC3)cc2s1 [CBK281919]	124.505
